Assay results taken from article doi:10.1101/2025.05.30.657104.
Results are given in words; binding and its absence hold for the method and conditions named. Binding seen in cells or lysates may run through a third protein. Some entries that bind do so weakly or less than the wild type. One block for each substance: values may come before it.

Amino acid sequences for entries named in this document (tags omitted).
UniProt P10644: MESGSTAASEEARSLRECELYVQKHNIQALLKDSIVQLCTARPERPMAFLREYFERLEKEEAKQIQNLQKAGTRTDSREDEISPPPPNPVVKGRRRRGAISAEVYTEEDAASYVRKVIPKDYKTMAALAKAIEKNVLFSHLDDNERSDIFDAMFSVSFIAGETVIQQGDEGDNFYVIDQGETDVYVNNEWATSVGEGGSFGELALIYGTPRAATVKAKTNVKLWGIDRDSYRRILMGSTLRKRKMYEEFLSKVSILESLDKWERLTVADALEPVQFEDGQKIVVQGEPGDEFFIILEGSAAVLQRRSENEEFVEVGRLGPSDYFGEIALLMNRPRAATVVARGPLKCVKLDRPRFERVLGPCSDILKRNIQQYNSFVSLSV

Key:
[1] = target: Protein kinase C alpha D463H (PKCα_(D463H)) (human) (UniProt P17252); test: co-IP
[2] = target: Protein kinase C alpha (PKCα) WT (human) (UniProt P17252); test: co-IP
[3] = target: PKA RIα, Rluc PCA reporter (UniProt P10644); test: split reporter
[4] = target: Protein kinase C beta II (PKCβII) WT, Rluc PCA reporter (UniProt P05771); test: split reporter

- binding [1]: binds
Substance: Protein kinase C alpha (PKCα) WT (from UniProt P17252 1-672) (enzyme)

- binding [2]: binds
Substance: Protein kinase C alpha D463H (PKCα_(D463H)) (from UniProt P17252 1-672) (enzyme)

- binding [3]: binds weakly
- binding [4]: binds
Substance: Protein kinase C beta II (PKCβII) WT, Rluc PCA reporter (from UniProt P05771-2 1-673) (enzyme)
